Data: PubChem BioAssay AID2551 (National Center for Advancing Translational Sciences (NCATS), 2010)
“And” between values parts separate entries of the source, which are not always exact repeats. Equal values may be shown once. The whole screen tested about 310,000 compounds, of which about 17,000 (5.5%) were called active. Inconclusive results, whose numbers are uncertain, are shown with a selection of clear calls. Calls come from the whole dose curve; as a rule, active = well fitted inhibition curve with a large enough effect; inconclusive = small, poorly fitted or top-dose-only effect, or effect the other way; inactive = no such curve, though single readings can be large or run the other way. Potencies beside an inconclusive call are fits to weak or partial responses and may not hold up. The source holds several records for some structures; these can differ, active in one and inactive in another.

Protein sequences, listed by entry. Tags and fused reporters are not part of them. Lines headed by an entry give the natural chain unless they say otherwise; changes in a name come on top.
UniProt P51450: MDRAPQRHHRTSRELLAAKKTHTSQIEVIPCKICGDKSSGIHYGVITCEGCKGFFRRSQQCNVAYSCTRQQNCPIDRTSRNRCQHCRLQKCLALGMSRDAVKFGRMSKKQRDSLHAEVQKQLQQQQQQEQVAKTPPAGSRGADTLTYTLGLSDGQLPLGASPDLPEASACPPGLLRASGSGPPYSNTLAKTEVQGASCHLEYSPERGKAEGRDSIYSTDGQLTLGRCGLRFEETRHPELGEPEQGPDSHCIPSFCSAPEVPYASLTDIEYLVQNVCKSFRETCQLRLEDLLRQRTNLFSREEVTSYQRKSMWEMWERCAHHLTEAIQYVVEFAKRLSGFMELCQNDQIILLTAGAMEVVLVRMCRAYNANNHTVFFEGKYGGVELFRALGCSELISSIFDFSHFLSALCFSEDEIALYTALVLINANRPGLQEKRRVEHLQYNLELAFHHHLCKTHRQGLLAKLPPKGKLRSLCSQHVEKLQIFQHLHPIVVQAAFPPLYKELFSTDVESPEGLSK

target: Nuclear receptor ROR-gamma (Mus musculus) (UniProt P51450); assay: qHTS for inhibitors of ROR gamma transcriptional activity; settings: Drosophila S2 Gal4-RORgamma UAS-luciferase reporter, 20 h; activity change, negative = inhibition: at 53.6 µM (top of the series); note: nearly all actives have a fitted effect of over 60% in size
Procedure, shortened: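 In this cell-based reporter format, copper sulfate (700 uM final) drives Gal4–ROR gamma fusion expression from a metallothionein promoter in Drosophila Schneider cells; compounds preincubated 1 hr, reporter read after 20 hr at ambient temperature.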
% is set by controls: 0 for no effect and ±100 for the full control effect; potency is the fitted concentration of half-maximal effect.

SMILES	Potency	activity change, negative = inhibition
S=c1[nH]nc(-c2ccccn2)n1/N=C/c1ccc(Cl)c(Cl)c1	active: 7.08 µM	
CC(=O)Nc1ccc(SCC(=O)Nc2ccccc2-c2ccccc2)cc1		inactive: 12.3%
CCN1C=CC(=C2C(=O)c3ccccc3C2=O)C=C1	inconclusive: 6.31 µM [activator, single point]	
Cc1ccc(S(=O)(=O)/N=C(\N)Nc2nc(C)c3ccc(C)cc3n2)cc1		inactive: 26.1%
COc1cc(C2NC(=S)NC3=C2CCc2ccccc23)cc(OC)c1OC (centres undefined)	active: 5.62 µM	
CC1(C)CC(=O)C=C(Nc2ccccc2)C1		inactive: 14.2%
Cc1ccc(C(=O)Nn2cnnc2)c(Cl)c1		inactive: -2.98%
CC(=O)Nc1ccc(NC(=O)C2CCCN(C(=O)c3ccc(Cl)cc3)C2)cc1 (centres undefined)		inactive: 1.79%
Nc1ccccc1S(=O)(=O)NCCCCc1ccccc1		inactive: -7.23%
Cc1ccc(C(=O)n2c(=S)nc3ccccn32)cc1	active: 1.58 µM	
COc1ccc(Cc2nnc(NC(=O)C3CC(=O)N(CCc4ccc(F)cc4)C3)s2)cc1OC (centres undefined)	inconclusive: 35.5 µM [activator, single point]	
COc1cccc(C(=O)NC(=S)Nc2ccccc2N2CCCC2)c1	active: 3.98 µM	
COC(=O)CNC(=O)CSc1nc2sccc2c(=O)n1-c1ccccc1		inactive: 19.4%
COc1ccc(OC)c(S(=O)(=O)NCc2csc(-c3ccccc3)n2)c1	inconclusive: 0.126 µM [inhibitor, single point]	
CN(C)S(=O)(=O)c1cccc(NC(=O)C2Cc3ccccc3CN2C(=O)c2ccco2)c1 (centres undefined)		inactive: 3.38%
COc1ccc(C=O)cc1Cn1c(C)cc(C)c(C#N)c1=O		inactive: 0.108%
Cc1[nH]n2c(=O)cc(C(C)(C)C)nc2c1-c1ccccc1	active: 1.41 µM	
Cn1c(SCC(=O)Nc2nc3ccccc3s2)nnc1-c1ccccc1	inconclusive: 35.5 µM [inhibitor, single point]	
COc1ccc(C(=O)N/N=C/c2ccc(OC)c(CSc3ccccn3)c2)cc1	inconclusive: 35.5 µM [inhibitor, single point]	
COc1cc(Cl)cc2c1Sc1ccccc1/C2=C/CCN(C)C		inactive: -21.5%
O=C(CNC(=O)C1COc2ccccc2O1)N/N=C\c1ccccc1Cl (centres undefined)		inactive: 10.4%
Cc1ccc(-n2nnnc2C(Cl)(Cl)c2nnnn2-c2ccc(C)cc2)cc1	active: 17.8 µM	
O=C(CCCN1C(=O)/C(=C\c2cccs2)SC1=S)NNC(=O)c1ccncc1		inactive: -35.4%
CC(=O)NS(=O)(=O)c1cccnc1Nc1ccc(Cl)c(Cl)c1	inconclusive: 17.8 µM [activator, single point]	
O=S(=O)(c1ccc(N2CCCC2)cc1)C(F)(F)F	inconclusive: 35.5 µM [inhibitor, single point]	

3 entries out of the list, ordered by formula weight, largest number first:
SMILES	Potency	activity change, negative = inhibition
S=c1[nH]nc(-c2ccccn2)n1/N=C/c1ccc(Cl)c(Cl)c1	active: 7.08 µM	
COc1cc(Cl)cc2c1Sc1ccccc1/C2=C/CCN(C)C		inactive: -21.5%
Cc1ccc(C(=O)n2c(=S)nc3ccccn32)cc1	active: 1.58 µM	

Later entries

SMILES	Potency	activity change, negative = inhibition
CCOc1ccc(/C=C/C(=O)c2cccs2)cc1	active: 22.4 µM	
O=C(OC1Cc2c(O)cc(O)cc2OC1c1cc(O)c(O)c(O)c1-c1c(C2Oc3cc(O)cc(O)c3CC2O)cc(O)c(O)c1O)c1cc(O)c(O)c(O)c1 (centres undefined)		inactive: -1.55%
Cc1ccc(C2C(C#N)=C(N)Oc3n[nH]c(-c4cccs4)c32)s1 (centres undefined)	active: 10 µM	
C=CCSc1nc2sc3c(c2c(=O)n1CC)CCc1ccccc1-3	active: 10 µM	
Cc1ccc(SC(CC(=O)c2ccc(C)cc2)C(=O)O)cc1 (centres undefined)	inconclusive: 35.5 µM [inhibitor, single point]	
CCCCn1c(SCC(=O)Nc2cc(C)on2)nc2c1c(=O)n(C)c(=O)n2C	inconclusive: 12.6 µM [activator, partial curve]	
CN(Cc1nc(-c2ccc(C(F)(F)F)cc2)no1)C1CCOCC1	inconclusive: 17.8 µM [activator, single point]	
Cc1cc([N+](=O)[O-])ccc1NCc1cccc([N+](=O)[O-])c1	inconclusive: 14.1 µM [activator, single point]	
COc1ccc(/C=C(/NC(=O)c2ccc(C)cc2)C(=O)NCc2ccncc2)cc1	inconclusive: 35.5 µM [activator, single point]	
Cc1nc(NC(=O)C2CC2)sc1C(=O)Nc1ccccc1Cl	inconclusive: 12.6 µM [activator, partial curve]	
COC(=O)C(c1ccccc1Cl)N1CCc2sccc2C1 (centres undefined)	inactive and active: 3.55 µM	
CN(C)c1ccc(CNC2CC(C)(C)NC(C)(C)C2)cc1	inconclusive: 2.82 µM [inhibitor, single point]	
COc1ccc(NC(=O)c2cncc(Br)c2)cc1S(=O)(=O)N1CCCCC1	inconclusive: 10 µM [activator, partial curve]	
CCCNNC(=O)C(O)(c1cccc(C)c1)c1cccc(C)c1	inconclusive: 35.5 µM [inhibitor, single point]	
Cc1ccc2nc(CCl)[n+]([O-])c(-c3ccccc3)c2c1	inconclusive: 0.794 µM [inhibitor, full curve]	
COc1ccccc1C1C(C#N)=C(N)N(c2cccnc2)C2=C1C(=O)CC(C)(C)C2 (centres undefined)	inconclusive: 31.6 µM [activator, single point]	
O=C(Nc1ccc(C2CC2(Cl)Cl)cc1)c1cccc([N+](=O)[O-])c1 (centres undefined)	inconclusive: 11.2 µM [activator, partial curve]	
Cc1ccc2c(Cl)c(C)c(N3CCCCC3)nc2n1	active: 3.98 µM	
Cc1ccc(O)c(C(=O)c2cnn(C(=O)COc3ccc(Cl)cc3)c2)c1	inconclusive: 22.4 µM [inhibitor, single point]	
CCC(=O)C1CCCN(C(=O)c2ccc(OC3CCN(C(=O)CCOC)CC3)cc2)C1 (centres undefined)		inactive: 3.61%
Cc1cc(C)n(-c2nc(NCCN(C)C)c3c4c(sc3n2)COC(C)(C)C4)n1	active: 15.8 µM	
COC(=O)c1sccc1Oc1c(Cl)cccc1[N+](=O)[O-]		inactive: 10.9%
CC(=O)c1cc(NC(=O)c2ccc([N+](=O)[O-])cc2)c(=O)oc1C	inconclusive: 11.2 µM [inhibitor, partial curve, poor fit]	
CCC(C)(C)C1CCc2[nH]nc(C(=O)N/N=C(\C)c3ccco3)c2C1 (centres undefined)	inconclusive: 20 µM [inhibitor, single point]	
